# This is one part of the list.
# Compound: Cc1cc(ccc1-c1ccccc1)C(=O)N1CCCN(CC1)C(=O)CCl [compound 10]
# Assay: probe-labelled cysteine peptide fold change vs DMSO (competition) (log2 fold change); higher = less target engagement (more negative = stronger competition)
# Details: THP-1, incubation time: 4 h
# 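Further: competitive profiling in live THP-1 cells: cysteine peptides tagged with an iodoacetamide desthiobiotin (IA-DTB) probe, intensity after compound treatment relative to DMSO-treated cells.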
Target,probe-labelled cysteine peptide fold change (10 µM),probe-labelled cysteine peptide fold change (50 µM)
GOLGA2_Q08379_356_CEAPDANQQLQQAMEER (UniProt Q08379),-0.0844,0.167
GNPTG_Q9UJJ9_245_TPEENEPTQLEGGPDSLGFETLENCR (UniProt Q9UJJ9),-0.282,0.185
GNL3_Q9BVP2_156_VIEASDVVLEVLDARDPLGCR (UniProt Q9BVP2),-0.142,-0.726
GOLGA2_Q08379_794_EPEAAAPAPGTGGDSVCGETHR (UniProt Q08379),-0.155,-0.495
GNL3L_Q9NVN8_278_ACSVGAVPGITK (UniProt Q9NVN8),-0.00424,-0.69
GLB1_P16278_426_TTLPQDCSNPAPLSSPLNGVHDR (UniProt P16278),-0.115,0.304
GMPPA_Q96IJ6_118_DQILAGSPEAFFVLNADVCSDFPLSAMLEAHRR (UniProt Q96IJ6),0.59,0.328
GORAB_Q5T7V8_354_CQEQAVSPK (UniProt Q5T7V8),-0.428,-0.114
GNPNAT1_Q96EK6_45_EVDWSQNTATFSPAISPTHPGEGLVLRPLCTADLNR (UniProt Q96EK6),0.133,-0.193
GNPTG_Q9UJJ9_157_LAHVSEPSTCVYALTFETPLVCHPHALLVYPTLPEALQR (UniProt Q9UJJ9),0.244,0.134
GMPS_P49915_456_VICAEEPYICK (UniProt P49915),-0.0248,-0.0701
GNB1_P62873_294_LLLAGYDDFNCNVWDALK (UniProt P62873),0.0699,0.17
GLOD4_Q9HC38-2_45_AACNGPYDGK (UniProt Q9HC38),0.172,0.181

# Taken from above.
# For probe-labelled cysteine peptide fold change (50 µM), GOLGA2_Q08379_794_EPEAAAPAPGTGGDSVCGETHR (UniProt Q08379) reads -0.495
# For probe-labelled cysteine peptide fold change (10 µM), GNPTG_Q9UJJ9_157_LAHVSEPSTCVYALTFETPLVCHPHALLVYPTLPEALQR (UniProt Q9UJJ9) reads 0.244

# From the supplement of paper PMC12067093, “Discovery and optimisation of a covalent ligand for TRIM25 and its application to targeted protein ubiquitination” (Chemical Science, 2025)
